The nature of this data set: general procedure: hybrid (solid and solution phase) peptide synthesis; DEPBT/DIEA; HATU/HOAt/DIEA. Particulars: for step yield: coupling step.

linear pentapeptide 15 had a step yield of 63%.
teixobactin displayed a step yield of 31%. Also, the step yield (from compound 16) stood at 31%. Moreover, the isolated yield (whole synthesis, overall from compound 9, scale of the general procedure gram scale of the general procedure) was determined as 8%.

Source of the values: PMC6646333 (Nature Communications, 2019).
